From patent US6287840A (Axys Pharmaceuticals, Inc., priority 1999, dated 2001)
For at least one compound, name, drawing or mass did not settle the structure.

Amino acid sequences for entries named in this document (tags omitted). Residues count along the entry.
UniProt P25774, 115-331: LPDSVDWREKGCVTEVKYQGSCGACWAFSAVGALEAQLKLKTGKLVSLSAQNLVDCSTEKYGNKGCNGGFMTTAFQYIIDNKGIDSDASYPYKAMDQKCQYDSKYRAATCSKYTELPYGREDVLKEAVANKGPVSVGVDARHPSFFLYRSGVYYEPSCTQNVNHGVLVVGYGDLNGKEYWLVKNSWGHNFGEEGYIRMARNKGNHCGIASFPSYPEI

Target: T1, Cloned cathepsin S (Homo sapiens, UniProt P25774)
T1 construct: made in house
Assay: Inhibition of cathepsin S, Z-Val-Val-Arg-AMC fluorescence progress curves
Type: biochemical
Settings: values without asterisk; 25° C., pH 6.5
Experimental: Stock solutions of the various inhibitors (10 mM) were made in DMF; dilutions were made in the same solvent. Cloned cathepsin S, (see Bromme et al., J. Biol. Chem. 268(&): 4832-4838 (1993)) was less than 1 nM in the assay. The assay buffer contained 100 mM phosphate at pH 6.5, 0.01% Triton, 2.5 mM dithiothreitol (DTT), and 2.5 mM ethylenediaminetetraacetic acid (EDTA). The substrate for cathepsin S was 10 μM Z-Val-Val-Arg-AMC (carbobenzyloxyvalinylvalinylarginylaminomethylcoumarin). The assays were initiated at 25° C. by addition of enzyme to 2 mL of assay buffer containing the substrate and the various inhibitors (30-0.001 μM). The increase in fluorescence at 460 nm with excitation at 380 nm was followed with time. Inactivation of cathepsin S was indicated by a downward curve in the increase in fluorescence with time. In the absence of inhibitors, the enzymatic production of free AMC was linear throughout the time course of inactivation examined. Data points were collected over at least 3 half-times of inactivation. The inhibition progress curves were analyzed using non-linear curve fitting software to compute the kobs values. Approximate second-order inactivation constants (kobs /[I]) were calculated for all compounds. […]

CS(=O)(=O)/C=C/[C@H](CCc1ccccc1)NC(=O)[C@H](Cc1ccccc1)NC(=O)N1CCOCC1 [Mu-Phe-HphVSMe, (S)-(E)-5-(4-morpholinecarbonylphenylalanyl)amino-7-phenyl-2-thia-3-heptene 2,2-dioxide]
k/KI (kirr/KI): 1,200,00 M^-1 sec^-1
